Data as given in PubChem BioAssay AID504764 (Drosophila RNAi Screening Center, 2011)
In all, the deposit lists about 22,000 reagents; this is a random part of those that have a named target and a result. Of all reagents, 403 (1.9%) got an active call. 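Unnormalised raw counts per well; ratio z-scores behind the hit calls and whether each hit raises or lowers signal are not deposited.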 A plus sign joins genes that one reagent is predicted to hit. Not stated in the record: the amount of reagent.

- Test: 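Genome-wide screen for regulators of Notch-driven gene expression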 (primary screen)
- System: Drosophila Kc167 cells
- Reagents: long dsRNA against Drosophila genes
- Time to read-out: about 5 days (4 days dsRNA, then 24 h after transfection)
- Challenge: transfection of constitutively active membrane-tethered Notch lacking the extracellular domain, read 24 h later
- Measured: 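Light from a Notch-responsive E(spl)m3 luciferase reporter under active Notch, with control-promoter and no-Notch reporter wells to normalise; raw counts from paired wells a and b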
- Reading the numbers: induced reporter light, run 1, well a and induced reporter light, run 1, well b: higher = more light from the Notch target reporter with active Notch; control promoter light, run 1, well a and control promoter light, run 1, well b: higher = more light from the viral control promoter (cell number, transfection, viability); uninduced reporter light, run 1, well a: higher = more light from the Notch target reporter without active Notch
- Call rule: 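Hit if the duplicate-averaged log2 ratio of induced to control-promoter light gives a plate-wise z beyond ±2, or induced to uninduced beyond ±1.8; weak-control or discordant-duplicate wells dropped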
- Meaning of the calls: active = modifier hit (raised or lowered Notch signal); inactive = not a hit

no.	Target gene	dsRNA	induced reporter light, run 1, well a	induced reporter light, run 1, well b	control promoter light, run 1, well a	control promoter light, run 1, well b	uninduced reporter light, run 1, well a	Outcome
1	CG17919	DRSC12571	1.39e5	1.38e5	86710	73405	11270	inactive
2	CG33981 + fab1	DRSC07412	1.09e5	1.08e5	1.83e5	1.93e5	9010	inactive
3	mus81	DRSC18180	1.04e5	1.07e5	1.46e5	1.72e5	7250	inactive
4	mus81	DRSC18644	1.10e5	1.09e5	1.90e5	1.18e5	9080	inactive
5	CG5577	DRSC10519	1.44e5	1.40e5	64560	91375	10842	inactive
6	CG7295	DRSC00699	1.07e5	1.06e5	1.06e5	58765	8782	inactive
7	CG2680	DRSC18466	1.18e5	1.38e5	2.25e5	2.67e5	9120	inactive
8	CG10337	DRSC02038	68650	70440	99340	1.86e5	5720	inactive
9	upd3 (unpaired 3)	DRSC19636	26980	33050	26535	23620	2710	inactive
10	upd3 (unpaired 3)	DRSC19968	73050	83135	79505	81500	10230	inactive
11	upd3 (unpaired 3)	DRSC22169						inactive
12	CG34015	DRSC19140	96700	87355	92420	1.04e5	7360	inactive
13	Seipin	DRSC18654	1.30e5	1.41e5	2.82e5	1.82e5	8455	inactive
14	Klf15 (Kruppel-like factor 15)	DRSC17742	1.51e5	1.35e5	3.02e5	2.53e5	12345	inactive
15	CG15475	DRSC02486	74200	44475	35610	29325	2250	inactive
16	CG12620	DRSC02177	1.44e5	1.68e5	1.87e5	1.69e5	12920	inactive
17	CG14960	DRSC08419	1.07e5	1.33e5	2.47e5	1.85e5	4815	inactive
18	CG34167	DRSC01525	66500	63130	88525	79060	6980	inactive
19	drm (drumstick)	DRSC00277	2.26e5	2.00e5	2.44e5	2.10e5	10585	inactive
20	CG14005	DRSC02337	83185	91965	79695	80550	6790	inactive
21	CG11811	DRSC09862	1.92e5	1.73e5	3.48e5	2.74e5	9790	inactive
22	atl (atlastin)	DRSC16089	1.46e5	1.55e5	2.51e5	2.61e5	12535	inactive
23	Hs3st-B (Heparan sulfate 3-O sulfotransferase-B)	DRSC20067	1.05e5	1.03e5	1.01e5	1.49e5	13145	inactive
24	Aldh-III (Aldehyde dehydrogenase type III)	DRSC06047	1.71e5	1.61e5	1.48e5	1.57e5	13380	inactive
25	p130CAS + Dic61B	DRSC08588	43555	43475	68220	73650	3700	inactive
26	TwdlW (TweedleW)	DRSC15540	2.25e5	2.18e5	2.11e5	1.89e5	16115	inactive
27	CG12237	DRSC19449	86865	92735	90820	45650	7805	inactive
28	CG4074	DRSC11752	1.32e5	1.53e5	1.14e5	1.16e5	12000	inactive
29	Noc3 (Nucleolar complex protein 3)	DRSC12535	93010	85000	1.05e5	96530	7005	inactive
30	otp (orthopedia)	DRSC04050	33335	29995	25800	30515	2215	inactive
31	otp (orthopedia)	DRSC04707	9460	8905	5970	5240	1450	inactive
32	tup (tailup)	DRSC03627	2.00e5	2.03e5	2.03e5	1.61e5	17165	inactive

Copied from the list:
Result for CG14005 [DRSC02337] in “control promoter light, run 1, well b”: 80550
Value for CG12620 [DRSC02177] in “control promoter light, run 1, well b”: 1.69e5
CG34015 [DRSC19140], uninduced reporter light, run 1, well a = 7360
Under “induced reporter light, run 1, well b”, Klf15 (Kruppel-like factor 15) [DRSC17742] is entered as 1.35e5
CG14960 [DRSC08419], induced reporter light, run 1, well a: 1.07e5

Further entries follow:
no.	Target gene	dsRNA	induced reporter light, run 1, well a	induced reporter light, run 1, well b	control promoter light, run 1, well a	control promoter light, run 1, well b	uninduced reporter light, run 1, well a	Outcome
33	Gs2 (Glutamine synthetase 2)	DRSC20250	1.01e5	1.07e5	1.73e5	1.44e5	7130	inactive
34	Cpr49Ac (Cuticular protein 49Ac)	DRSC07199	94495	87580	60990	76090	6205	inactive
35	CG7492	DRSC10855	99500	88685	72935	34425	8205	inactive
36	ais (aramis)	DRSC10523	1.45e5	1.25e5	95330	86805	11115	inactive
37	Tep4 (Thioester-containing protein 4)	DRSC03453	43890	33120	47620	66865	2120	inactive
38	CG14811	DRSC17962	1.15e5	1.08e5	2.03e5	1.59e5	7115	inactive
39	CG12589	DRSC12215	1.52e5	1.26e5	1.32e5	1.30e5	8265	inactive
40	veg (retired record)	DRSC07714	79100	77665	98185	1.07e5	8250	inactive
41	CG8788	DRSC07267	1.88e5	1.56e5	2.31e5	1.78e5	15228	inactive
42	Graf (GTPase regulator associated with FAK)	DRSC20131	2.10e5	2.01e5	2.68e5	2.34e5	14455	inactive
43	CG31735	DRSC01518	89700	71700	79850	66820	7240	inactive
44	CG9759	DRSC16558	1.73e5	2.14e5	1.22e5	1.21e5	12500	inactive
45	CG4325	DRSC18516	9990	11465	11005	13535	4070	inactive
46	dUTPase (Deoxyuridine triphosphatase)	DRSC01998	2.28e5	2.09e5	1.82e5	1.69e5	14725	inactive
47	Flo1 (Flotillin 1)	DRSC07427	1.23e5	1.64e5	2.29e5	2.49e5	12645	inactive
48	CR30374 (pseudo)	DRSC05080	97840	1.10e5	1.43e5	1.66e5	4810	inactive
49	sqz (squeeze)	DRSC16980	1.50e5	1.56e5	1.33e5	1.53e5	12280	inactive
50	akirin	DRSC11000	1.20e5	1.04e5	94655	55340	8715	inactive
